Reference: PubChem BioAssay AID1259425 (University of Nebraska Medical Center, 2018)
Test: 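Compare each knockdown with KSR1 silencing using changes in marker transcripts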 (primary screen). System: HCT116 human colon cancer cells. Knock-down reagent: siRNA pool against human genes, 50 nM siRNA. Measured: 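mRNA of six signature genes measured together by branched-DNA assay after 50 nM siRNA pool, blank removed, divided by geometric mean of two housekeeping genes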. Reading the numbers: BNIP3L mRNA: higher = more BNIP3L transcript after knockdown; NDRG1 mRNA: higher = more NDRG1 transcript after knockdown.
Here is a random part of about 14,000 reagents. Further read-outs or replicates are left out here. Not stated in the record: the time to read-out.

REEP2 (receptor accessory protein 2) [SID364000230]
- BNIP3L mRNA, set 1: 0.0479
- NDRG1 mRNA, set 1: 0.218

SLITRK5 (SLIT and NTRK like family member 5) [SID363999576]
- BNIP3L mRNA, set 1: 0.109
- NDRG1 mRNA, set 1: 0.253

RHOBTB2 (Rho related BTB domain containing 2) [SID363999347]
- BNIP3L mRNA, set 1: 0.143
- NDRG1 mRNA, set 1: 0.12

UNC93A (unc-93 homolog A) [SID364001298]
- BNIP3L mRNA, set 1: 0.0887
- NDRG1 mRNA, set 1: 0.138

UQCRFS1 [SID363996857]
- BNIP3L mRNA, set 1: 0.0898
- NDRG1 mRNA, set 1: 0.232

CMTM7 (CKLF like MARVEL transmembrane domain containing 7) [SID364004554]
- BNIP3L mRNA, set 1: 0.167
- NDRG1 mRNA, set 1: 0.232

NES (nestin) [SID363997406]
- BNIP3L mRNA, set 1: 0.121
- NDRG1 mRNA, set 1: 0.258

COL21A1 (collagen type XXI alpha 1 chain) [SID364003469]
- BNIP3L mRNA, set 1: 0.092
- NDRG1 mRNA, set 1: 0.981

IFT172 (intraflagellar transport 172) [SID363999632]
- BNIP3L mRNA, set 1: 0.175
- NDRG1 mRNA, set 1: 0.26

FPGS (folylpolyglutamate synthase) [SID363995899]
- BNIP3L mRNA, set 1: 0.0852
- NDRG1 mRNA, set 1: 0.239

LDAF1 (lipid droplet assembly factor 1) [SID364001684]
- BNIP3L mRNA, set 1: 0.111
- NDRG1 mRNA, set 1: 0.0961

FANCF (FA complementation group F) [SID364002504]
- BNIP3L mRNA, set 1: 0.201
- NDRG1 mRNA, set 1: 0.756

SHANK2 (SH3 and multiple ankyrin repeat domains 2) [SID363998221]
- BNIP3L mRNA, set 1: 0.234
- NDRG1 mRNA, set 1: 0.262

VPS18 (VPS18 core subunit of CORVET and HOPS complexes) [SID364001869]
- BNIP3L mRNA, set 1: 0.0773
- NDRG1 mRNA, set 1: 0.127

ZGPAT (zinc finger CCCH-type and G-patch domain containing) [SID364004036]
- BNIP3L mRNA, set 1: 0.173
- NDRG1 mRNA, set 1: 0.161

PCSK1N (proprotein convertase subtilisin/kexin type 1 inhibitor) [SID363998395]
- BNIP3L mRNA, set 1: 0.163
- NDRG1 mRNA, set 1: 0.347

3 of these entries in another layout.
gene knocked down	PubChem SID	BNIP3L mRNA, set 1	NDRG1 mRNA, set 1
NES (nestin)	SID363997406	0.121	0.258
COL21A1 (collagen type XXI alpha 1 chain)	SID364003469	0.092	0.981
IFT172 (intraflagellar transport 172)	SID363999632	0.175	0.26

The results go on.
CRH (corticotropin releasing hormone) [SID363992049]
- BNIP3L mRNA, set 1: 0.0752
- NDRG1 mRNA, set 1: 0.128

DLK1 (delta like non-canonical Notch ligand 1) [SID363994897]
- BNIP3L mRNA, set 1: 0.0857
- NDRG1 mRNA, set 1: 0.238

AURKC (aurora kinase C) [SID363994298]
- BNIP3L mRNA, set 1: 0.221
- NDRG1 mRNA, set 1: 0.192

ZBBX (zinc finger B-box domain containing) [SID364002978]
- BNIP3L mRNA, set 1: 0.129
- NDRG1 mRNA, set 1: 0.427

IFNW1 (interferon omega 1) [SID363993380]
- BNIP3L mRNA, set 1: 0.559
- NDRG1 mRNA, set 1: 2.61

GH1 (growth hormone 1) [SID363991838]
- BNIP3L mRNA, set 1: 0.116
- NDRG1 mRNA, set 1: 0.222

EIF2AK2 (eukaryotic translation initiation factor 2 alpha kinase 2) [SID363993917]
- BNIP3L mRNA, set 1: 0.119
- NDRG1 mRNA, set 1: 0.153

HDAC10 (histone deacetylase 10) [SID364003740]
- BNIP3L mRNA, set 1: 0.103
- NDRG1 mRNA, set 1: 0.287

GYPC (glycophorin C (Gerbich blood group)) [SID363993308]
- BNIP3L mRNA, set 1: 0.164
- NDRG1 mRNA, set 1: 0.682

RYR2 (ryanodine receptor 2) [SID363992332]
- BNIP3L mRNA, set 1: 0.0774
- NDRG1 mRNA, set 1: 0.233

FMNL1 (formin like 1) [SID363996761]
- BNIP3L mRNA, set 1: 0.1
- NDRG1 mRNA, set 1: 0.606

SLC14A1 [SID363999685]
- BNIP3L mRNA, set 1: 0.0774
- NDRG1 mRNA, set 1: 0.111
